# Test results reported in the supplement of paper PMC12067093, “Discovery and optimisation of a covalent ligand for TRIM25 and its application to targeted protein ubiquitination” (Chemical Science, 2025).
# The chains behind the UniProt entries cited, without tags or fusion partners. Where a name states a change or a piece, a line headed by the entry shows the natural chain unless it says otherwise.
# UniProt O00116: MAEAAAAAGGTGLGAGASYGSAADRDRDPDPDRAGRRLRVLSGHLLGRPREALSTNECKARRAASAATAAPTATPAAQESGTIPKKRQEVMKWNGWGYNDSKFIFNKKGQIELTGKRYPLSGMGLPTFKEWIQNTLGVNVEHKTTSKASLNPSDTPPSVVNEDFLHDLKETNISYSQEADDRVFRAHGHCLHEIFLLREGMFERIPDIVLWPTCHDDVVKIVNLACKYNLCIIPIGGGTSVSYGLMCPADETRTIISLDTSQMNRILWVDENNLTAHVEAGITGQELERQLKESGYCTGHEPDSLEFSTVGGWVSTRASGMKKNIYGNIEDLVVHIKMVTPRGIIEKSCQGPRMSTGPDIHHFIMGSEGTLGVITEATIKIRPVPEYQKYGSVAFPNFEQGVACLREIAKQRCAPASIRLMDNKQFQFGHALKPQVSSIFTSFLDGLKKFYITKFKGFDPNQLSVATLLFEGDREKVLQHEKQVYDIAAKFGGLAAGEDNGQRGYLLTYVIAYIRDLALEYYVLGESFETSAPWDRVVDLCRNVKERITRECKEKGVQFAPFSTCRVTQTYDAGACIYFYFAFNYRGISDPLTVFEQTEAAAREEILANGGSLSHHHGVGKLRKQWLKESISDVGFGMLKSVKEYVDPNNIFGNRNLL
# UniProt Q6P6C2: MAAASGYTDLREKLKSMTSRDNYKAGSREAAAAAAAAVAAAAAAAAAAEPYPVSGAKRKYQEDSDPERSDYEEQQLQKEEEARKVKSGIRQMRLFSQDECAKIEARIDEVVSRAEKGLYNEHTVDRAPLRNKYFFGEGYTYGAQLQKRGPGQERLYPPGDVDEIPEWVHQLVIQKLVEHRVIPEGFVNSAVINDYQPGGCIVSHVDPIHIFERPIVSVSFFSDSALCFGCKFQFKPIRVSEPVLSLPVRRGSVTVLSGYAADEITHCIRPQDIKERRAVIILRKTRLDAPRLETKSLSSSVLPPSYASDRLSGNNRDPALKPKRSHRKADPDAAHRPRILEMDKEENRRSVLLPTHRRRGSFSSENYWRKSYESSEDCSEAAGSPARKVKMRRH
# UniProt P13196: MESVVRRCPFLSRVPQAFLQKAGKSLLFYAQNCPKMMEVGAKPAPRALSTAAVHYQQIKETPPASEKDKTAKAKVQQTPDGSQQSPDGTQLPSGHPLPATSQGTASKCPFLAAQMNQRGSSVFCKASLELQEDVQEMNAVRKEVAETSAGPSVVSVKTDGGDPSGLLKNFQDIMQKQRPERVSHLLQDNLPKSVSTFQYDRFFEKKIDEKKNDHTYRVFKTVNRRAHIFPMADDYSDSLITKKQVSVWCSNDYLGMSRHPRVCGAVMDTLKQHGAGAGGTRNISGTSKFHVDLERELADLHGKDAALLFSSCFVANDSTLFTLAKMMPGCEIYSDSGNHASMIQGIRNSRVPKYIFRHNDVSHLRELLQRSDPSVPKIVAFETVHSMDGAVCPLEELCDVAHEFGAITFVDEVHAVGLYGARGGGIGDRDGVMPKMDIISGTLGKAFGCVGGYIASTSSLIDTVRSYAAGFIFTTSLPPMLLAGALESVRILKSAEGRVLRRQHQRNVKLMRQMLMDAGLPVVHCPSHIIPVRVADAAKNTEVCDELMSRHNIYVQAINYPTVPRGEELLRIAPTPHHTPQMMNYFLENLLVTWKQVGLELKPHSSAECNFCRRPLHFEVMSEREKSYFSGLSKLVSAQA
# UniProt P04075: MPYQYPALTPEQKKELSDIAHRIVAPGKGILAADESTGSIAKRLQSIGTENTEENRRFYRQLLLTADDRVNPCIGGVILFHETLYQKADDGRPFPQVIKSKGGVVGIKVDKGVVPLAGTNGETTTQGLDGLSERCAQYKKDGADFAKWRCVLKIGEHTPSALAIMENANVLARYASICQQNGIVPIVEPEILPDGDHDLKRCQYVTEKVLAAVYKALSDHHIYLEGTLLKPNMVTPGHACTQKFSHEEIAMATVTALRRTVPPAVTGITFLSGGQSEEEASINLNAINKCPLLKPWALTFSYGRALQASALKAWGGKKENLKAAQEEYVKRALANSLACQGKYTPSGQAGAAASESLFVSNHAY
# UniProt P49189: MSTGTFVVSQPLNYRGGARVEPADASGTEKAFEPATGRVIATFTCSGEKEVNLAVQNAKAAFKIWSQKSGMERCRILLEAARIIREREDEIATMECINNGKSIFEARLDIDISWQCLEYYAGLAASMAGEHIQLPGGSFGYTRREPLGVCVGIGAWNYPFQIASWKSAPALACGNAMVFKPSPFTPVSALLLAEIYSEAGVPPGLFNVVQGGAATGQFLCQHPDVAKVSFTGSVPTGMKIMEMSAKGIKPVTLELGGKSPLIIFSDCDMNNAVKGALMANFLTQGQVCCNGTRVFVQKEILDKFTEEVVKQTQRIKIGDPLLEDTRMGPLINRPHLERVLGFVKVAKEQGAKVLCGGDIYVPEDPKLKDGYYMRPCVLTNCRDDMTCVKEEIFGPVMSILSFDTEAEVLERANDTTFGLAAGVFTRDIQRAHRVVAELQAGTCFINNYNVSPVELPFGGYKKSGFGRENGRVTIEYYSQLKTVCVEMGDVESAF
# UniProt O43488: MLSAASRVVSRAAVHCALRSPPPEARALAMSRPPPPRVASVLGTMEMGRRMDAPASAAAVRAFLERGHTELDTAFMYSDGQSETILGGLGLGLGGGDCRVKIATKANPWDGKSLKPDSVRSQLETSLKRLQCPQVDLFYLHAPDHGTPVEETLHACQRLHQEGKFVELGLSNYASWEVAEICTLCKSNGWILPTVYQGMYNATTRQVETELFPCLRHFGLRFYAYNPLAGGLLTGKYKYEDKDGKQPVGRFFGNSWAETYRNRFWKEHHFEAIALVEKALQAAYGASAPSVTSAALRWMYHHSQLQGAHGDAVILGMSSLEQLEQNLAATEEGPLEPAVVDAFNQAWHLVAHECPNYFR
# UniProt O43865, whole entry, looked up: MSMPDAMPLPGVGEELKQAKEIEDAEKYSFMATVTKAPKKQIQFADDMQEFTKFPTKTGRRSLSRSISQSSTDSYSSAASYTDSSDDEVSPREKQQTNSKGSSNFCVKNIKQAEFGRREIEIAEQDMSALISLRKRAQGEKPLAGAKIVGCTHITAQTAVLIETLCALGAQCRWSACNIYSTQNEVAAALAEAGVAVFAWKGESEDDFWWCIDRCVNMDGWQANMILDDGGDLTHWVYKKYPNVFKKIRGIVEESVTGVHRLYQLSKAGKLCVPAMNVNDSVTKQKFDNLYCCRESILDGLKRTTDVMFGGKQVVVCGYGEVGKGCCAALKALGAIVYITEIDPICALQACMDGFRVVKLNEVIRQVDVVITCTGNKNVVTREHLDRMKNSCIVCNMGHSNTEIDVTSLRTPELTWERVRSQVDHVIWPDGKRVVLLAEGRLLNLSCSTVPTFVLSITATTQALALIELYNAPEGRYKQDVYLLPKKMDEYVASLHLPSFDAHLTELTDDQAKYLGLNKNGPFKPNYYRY
# UniProt P35573: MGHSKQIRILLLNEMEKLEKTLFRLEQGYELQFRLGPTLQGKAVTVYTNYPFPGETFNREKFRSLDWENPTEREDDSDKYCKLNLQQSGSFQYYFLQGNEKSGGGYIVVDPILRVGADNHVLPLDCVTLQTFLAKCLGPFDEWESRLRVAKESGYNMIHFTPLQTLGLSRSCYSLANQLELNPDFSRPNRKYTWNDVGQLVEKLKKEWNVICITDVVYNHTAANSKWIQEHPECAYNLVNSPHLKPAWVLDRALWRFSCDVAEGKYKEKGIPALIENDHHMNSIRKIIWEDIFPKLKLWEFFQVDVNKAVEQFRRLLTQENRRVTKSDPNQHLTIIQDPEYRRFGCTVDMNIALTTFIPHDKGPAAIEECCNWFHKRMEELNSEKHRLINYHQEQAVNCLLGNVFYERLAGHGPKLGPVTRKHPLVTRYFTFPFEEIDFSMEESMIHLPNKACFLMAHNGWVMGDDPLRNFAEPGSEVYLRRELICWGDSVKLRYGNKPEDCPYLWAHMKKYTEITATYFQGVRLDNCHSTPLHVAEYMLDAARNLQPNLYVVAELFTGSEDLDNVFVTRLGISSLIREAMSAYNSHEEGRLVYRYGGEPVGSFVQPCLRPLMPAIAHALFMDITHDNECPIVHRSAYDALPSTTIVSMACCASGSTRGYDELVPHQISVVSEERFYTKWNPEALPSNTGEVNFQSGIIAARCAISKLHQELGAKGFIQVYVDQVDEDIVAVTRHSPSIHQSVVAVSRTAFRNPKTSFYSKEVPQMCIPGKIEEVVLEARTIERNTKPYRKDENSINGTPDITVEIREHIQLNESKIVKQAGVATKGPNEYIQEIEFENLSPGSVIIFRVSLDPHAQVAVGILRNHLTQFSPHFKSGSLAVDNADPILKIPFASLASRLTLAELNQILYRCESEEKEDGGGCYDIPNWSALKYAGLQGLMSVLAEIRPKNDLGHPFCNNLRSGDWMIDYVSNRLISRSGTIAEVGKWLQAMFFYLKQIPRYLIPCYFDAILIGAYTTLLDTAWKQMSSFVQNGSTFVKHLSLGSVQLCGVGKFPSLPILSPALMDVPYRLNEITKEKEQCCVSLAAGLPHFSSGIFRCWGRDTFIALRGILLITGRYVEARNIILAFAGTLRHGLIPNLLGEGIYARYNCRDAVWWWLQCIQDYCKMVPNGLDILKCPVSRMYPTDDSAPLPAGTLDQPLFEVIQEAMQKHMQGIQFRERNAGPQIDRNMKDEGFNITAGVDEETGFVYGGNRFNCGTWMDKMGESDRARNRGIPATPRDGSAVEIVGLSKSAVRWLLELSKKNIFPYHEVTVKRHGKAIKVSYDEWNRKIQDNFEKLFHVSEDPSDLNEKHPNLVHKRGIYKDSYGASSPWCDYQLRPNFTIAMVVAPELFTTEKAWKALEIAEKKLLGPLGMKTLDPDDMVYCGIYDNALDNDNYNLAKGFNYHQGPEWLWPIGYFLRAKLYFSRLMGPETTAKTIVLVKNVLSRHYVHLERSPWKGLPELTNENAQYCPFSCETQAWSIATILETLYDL
# UniProt Q9UJX6, whole entry, looked up: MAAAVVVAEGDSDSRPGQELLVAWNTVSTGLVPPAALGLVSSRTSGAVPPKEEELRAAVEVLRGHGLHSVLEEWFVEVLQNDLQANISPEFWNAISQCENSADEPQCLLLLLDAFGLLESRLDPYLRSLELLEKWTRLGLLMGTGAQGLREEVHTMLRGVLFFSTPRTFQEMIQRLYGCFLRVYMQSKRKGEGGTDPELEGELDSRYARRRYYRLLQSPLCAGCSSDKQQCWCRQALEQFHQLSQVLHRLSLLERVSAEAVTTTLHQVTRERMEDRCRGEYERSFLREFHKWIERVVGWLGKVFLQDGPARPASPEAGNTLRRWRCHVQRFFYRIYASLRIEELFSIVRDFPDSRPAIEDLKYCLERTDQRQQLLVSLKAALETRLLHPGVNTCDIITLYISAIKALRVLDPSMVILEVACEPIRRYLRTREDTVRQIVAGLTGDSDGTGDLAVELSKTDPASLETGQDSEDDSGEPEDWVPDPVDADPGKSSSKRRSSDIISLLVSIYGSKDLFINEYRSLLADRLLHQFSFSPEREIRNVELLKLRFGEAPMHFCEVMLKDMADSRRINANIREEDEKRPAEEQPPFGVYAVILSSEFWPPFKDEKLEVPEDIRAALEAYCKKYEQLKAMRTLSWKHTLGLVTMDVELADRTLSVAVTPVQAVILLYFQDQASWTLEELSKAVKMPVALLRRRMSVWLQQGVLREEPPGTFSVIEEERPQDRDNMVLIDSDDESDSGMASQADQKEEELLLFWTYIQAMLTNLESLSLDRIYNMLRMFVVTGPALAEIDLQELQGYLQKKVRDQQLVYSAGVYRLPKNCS
# UniProt Q13686: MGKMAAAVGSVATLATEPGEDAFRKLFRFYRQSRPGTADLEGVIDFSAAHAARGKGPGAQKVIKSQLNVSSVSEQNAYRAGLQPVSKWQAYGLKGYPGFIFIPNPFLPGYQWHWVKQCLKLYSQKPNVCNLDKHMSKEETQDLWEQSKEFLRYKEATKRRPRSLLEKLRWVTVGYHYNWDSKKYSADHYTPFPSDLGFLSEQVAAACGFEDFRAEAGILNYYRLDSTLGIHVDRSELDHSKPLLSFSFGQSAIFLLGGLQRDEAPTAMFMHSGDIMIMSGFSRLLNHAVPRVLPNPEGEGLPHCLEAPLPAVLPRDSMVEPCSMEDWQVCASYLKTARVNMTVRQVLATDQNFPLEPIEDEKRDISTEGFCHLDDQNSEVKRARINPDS
# UniProt O95433, whole entry, looked up: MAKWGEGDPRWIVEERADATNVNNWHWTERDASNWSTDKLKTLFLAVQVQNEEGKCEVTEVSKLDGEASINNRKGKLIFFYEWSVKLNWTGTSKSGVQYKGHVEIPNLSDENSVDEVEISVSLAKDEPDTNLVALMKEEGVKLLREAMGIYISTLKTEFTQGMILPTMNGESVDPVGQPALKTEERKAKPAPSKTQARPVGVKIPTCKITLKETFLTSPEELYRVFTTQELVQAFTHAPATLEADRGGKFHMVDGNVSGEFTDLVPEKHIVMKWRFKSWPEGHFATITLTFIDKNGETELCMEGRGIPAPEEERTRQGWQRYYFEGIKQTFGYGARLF
# This is one part of the list.
# Compound: CC1Cc2ccccc2N1C(=O)C1CCCN(C1)C(=O)CCl (mixture of isomers) [TRIM25 ligand 11 (diastereomer mixture)]
# Test: probe-labelled cysteine peptide fold change vs DMSO (competition) (log2 fold change); higher = less target engagement (more negative = stronger competition)
# Settings: THP-1, incubation time: 4 h
# 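Note: competitive chemoproteomic profiling in live THP-1 cells with an iodoacetamide desthiobiotin (IA-DTB) probe, comparing probe-labelled peptide intensities in compound-treated cells against DMSO-treated controls.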
Target,probe-labelled cysteine peptide fold change (10 µM),probe-labelled cysteine peptide fold change (50 µM)
ANK2_Q01484_375_APVDDVTLDYLTALHVAAHCGHYR (UniProt Q01484),0.000842,0.00679
AIFM1_O95831_256_CLIATGGTPR (UniProt O95831),0.0434,0.0627
AGPS_O00116_404_YGSVAFPNFEQGVACLR (UniProt O00116),0.097,0.0288
AIMP2_Q13155_143_LLCEHFR (UniProt Q13155),-0.017,0.0681
ALDH2_P05091_386_LLCGGGIAADR (UniProt P05091),-0.0272,0.0954
ALKBH5_Q6P6C2_100_LFSQDECAK (UniProt Q6P6C2),-0.0108,0.0136
AGMAT_Q9BSE5_216_CVDEGLLDCKR (UniProt Q9BSE5),-0.0312,-0.0253
AKAP9_Q99996_2125_CSELLLSK (UniProt Q99996),-0.159,0.0778
AHNAK_Q09666_1900_LEGDLTGPSVGVEVPDVELECPDAK (UniProt Q09666),0.0611,0.146
AMPD3_Q01432_47_DALSLFTVPEDCPIGQK (UniProt Q01432),0.0286,-0.277
AGPS_O00116_297_ESGYCTGHEPDSLEFSTVGGWVSTR (UniProt O00116),-0.0317,-0.192
ALAS1_P13196_544_NTEVCDELMSR (UniProt P13196),-0.0844,0.0505
ALDH18A1_P54886_606+612_CEYPAACNALETLLIHR (UniProt P54886),-0.0162,0.0659
ALDOA_P04075_178_YASICQQNGIVPIVEPEILPDGDHDLK (UniProt P04075),0.162,0.209
ALDH9A1_P49189_355_VLCGGDIYVPEDPK (UniProt P49189),-0.168,0.0484
ANAPC10_Q9UM13_173_CTTIDFMMYR (UniProt Q9UM13),-0.00282,-0.0614
AKR7A2_O43488_132+156_LQCPQVDLFYLHAPDHGTPVEETLHACQR (UniProt O43488),0.0707,0.0427
AHCYL1_O43865_392+395_NSCIVCNMGHSNTEIDVTSLR (UniProt O43865),-0.122,-0.176
AGL_P35573_528_LDNCHSTPLHVAEYMLDAAR (UniProt P35573),0.0558,-0.445
AIDA_Q96BJ3_69_IATCLELR (UniProt Q96BJ3),-0.102,0.146
ALS2_Q96Q42_916_LLCESSNR (UniProt Q96Q42),-0.0868,0.0281

Target,probe-labelled cysteine peptide fold change (10 µM),probe-labelled cysteine peptide fold change (50 µM)
ALDH9A1_P49189_45_VIATFTCSGEK (UniProt P49189),-0.0203,0.015
ALAS1_P13196_8_RCPFLSR (UniProt P13196),-0.0974,0.525
ANAPC2_Q9UJX6_557_FGEAPMHFCEVMLK (UniProt Q9UJX6),0.061,0.0195
ALDOA_P04075_73_QLLLTADDRVNPCIGGVILFHETLYQK (UniProt P04075),-0.0181,-0.162
ALDOC_P09972_73_KCIGGVIFFHETLYQK (UniProt P09972),0.048,0.0826
ALKBH1_Q13686_304_VLPNPEGEGLPHCLEAPLPAVLPR (UniProt Q13686),0.0258,-0.445
ANAPC1_Q9H1A4_962_DAIYHCR (UniProt Q9H1A4),-0.0432,0.323
AKR1B1_P15121_45_HIDCAHVYQNENEVGVAIQEK (UniProt P15121),0.188,0.00649
AHCTF1_Q8WYP5_722_WNPDCLMIDGLVSQLGER (UniProt Q8WYP5),–,0.0921
AHSA1_O95433_301_NGETELCMEGR (UniProt O95433),0.0782,0.0585
AGPAT5_Q9NUQ2_217_ATHVAFDCMK (UniProt Q9NUQ2),0.051,-0.0118
AHCYL1_O43865_211_GESEDDFWWCIDR (UniProt O43865),0.324,0.214
AGL_P35573_486_ELICWGDSVK (UniProt P35573),0.0108,0.0934
ANAPC11_Q9NYG5_76_WLHAQQVQQHCPMCR (UniProt Q9NYG5),-0.122,0.153
ANAPC4_Q9UJX5_553_SMNQAICIPLYR (UniProt Q9UJX5),-0.169,-0.0125
ALDH6A1_Q02252_249_LLQDSGAPDGTLNIIHGQHEAVNFICDHPDIK (UniProt Q02252),-8.54e-05,-0.0374
AMFR_Q9UKV5_364_KLPCGHLFHNSCLR (UniProt Q9UKV5),0.116,-0.0427
AKAP9_Q99996_1367_ETEQNYEAEIHCLQK (UniProt Q99996),-0.0395,-0.0793
ANAPC7_Q9UJX3_131_VRPSTGNSASTPQSQCLPSEIEVK (UniProt Q9UJX3),-0.167,-0.378
ALDH3A2_P51648_226_DCDLDIVCR (UniProt P51648),-0.0107,0.045
AMACR_Q9UHK6_284+293_AEWCQIFDGTDACVTPVLTFEEVVHHDHNK (UniProt Q9UHK6),0.0202,0.0575
